In US12168005B2, “Methods for treating wild type isocitrate dehydrogenase 1 cancers” (University Hospitals Cleveland Medical Center, priority 2019, dated 2024):
At least one compound was matched to its structure with a doubt left.

Test system: wild type IDH1 pancreatic cancer (MiaPaCa2 cell line) xenografts
Test: pancreatic xenograft study (MiaPaCa2)
Format: in vivo, mice
Details: oral 150 mg/kg, 5 xenografts per group
Description: FIG. 7. […] No toxicity to mice occurred at these oral doses.
No toxicity was observed.

In the case of `N#Cc1ccnc(N2C(=O)CC[C@H]2C(=O)N(c2cncc(F)c2)[C@H](C(=O)NC2CC(F)(F)C2)c2ccccc2Cl)c1` [AG-120, Ivosidenib], the “reduction of cancer (tumor volume and tumor weight)” value is reported as “effective in reducing cancer in all cases”.
